# Percent effect of library compounds

Sequences of proteins named here, by UniProt entry; tags and fusion partners are left off. Residues count along the entry.
UniProt I6X8D2, whole entry: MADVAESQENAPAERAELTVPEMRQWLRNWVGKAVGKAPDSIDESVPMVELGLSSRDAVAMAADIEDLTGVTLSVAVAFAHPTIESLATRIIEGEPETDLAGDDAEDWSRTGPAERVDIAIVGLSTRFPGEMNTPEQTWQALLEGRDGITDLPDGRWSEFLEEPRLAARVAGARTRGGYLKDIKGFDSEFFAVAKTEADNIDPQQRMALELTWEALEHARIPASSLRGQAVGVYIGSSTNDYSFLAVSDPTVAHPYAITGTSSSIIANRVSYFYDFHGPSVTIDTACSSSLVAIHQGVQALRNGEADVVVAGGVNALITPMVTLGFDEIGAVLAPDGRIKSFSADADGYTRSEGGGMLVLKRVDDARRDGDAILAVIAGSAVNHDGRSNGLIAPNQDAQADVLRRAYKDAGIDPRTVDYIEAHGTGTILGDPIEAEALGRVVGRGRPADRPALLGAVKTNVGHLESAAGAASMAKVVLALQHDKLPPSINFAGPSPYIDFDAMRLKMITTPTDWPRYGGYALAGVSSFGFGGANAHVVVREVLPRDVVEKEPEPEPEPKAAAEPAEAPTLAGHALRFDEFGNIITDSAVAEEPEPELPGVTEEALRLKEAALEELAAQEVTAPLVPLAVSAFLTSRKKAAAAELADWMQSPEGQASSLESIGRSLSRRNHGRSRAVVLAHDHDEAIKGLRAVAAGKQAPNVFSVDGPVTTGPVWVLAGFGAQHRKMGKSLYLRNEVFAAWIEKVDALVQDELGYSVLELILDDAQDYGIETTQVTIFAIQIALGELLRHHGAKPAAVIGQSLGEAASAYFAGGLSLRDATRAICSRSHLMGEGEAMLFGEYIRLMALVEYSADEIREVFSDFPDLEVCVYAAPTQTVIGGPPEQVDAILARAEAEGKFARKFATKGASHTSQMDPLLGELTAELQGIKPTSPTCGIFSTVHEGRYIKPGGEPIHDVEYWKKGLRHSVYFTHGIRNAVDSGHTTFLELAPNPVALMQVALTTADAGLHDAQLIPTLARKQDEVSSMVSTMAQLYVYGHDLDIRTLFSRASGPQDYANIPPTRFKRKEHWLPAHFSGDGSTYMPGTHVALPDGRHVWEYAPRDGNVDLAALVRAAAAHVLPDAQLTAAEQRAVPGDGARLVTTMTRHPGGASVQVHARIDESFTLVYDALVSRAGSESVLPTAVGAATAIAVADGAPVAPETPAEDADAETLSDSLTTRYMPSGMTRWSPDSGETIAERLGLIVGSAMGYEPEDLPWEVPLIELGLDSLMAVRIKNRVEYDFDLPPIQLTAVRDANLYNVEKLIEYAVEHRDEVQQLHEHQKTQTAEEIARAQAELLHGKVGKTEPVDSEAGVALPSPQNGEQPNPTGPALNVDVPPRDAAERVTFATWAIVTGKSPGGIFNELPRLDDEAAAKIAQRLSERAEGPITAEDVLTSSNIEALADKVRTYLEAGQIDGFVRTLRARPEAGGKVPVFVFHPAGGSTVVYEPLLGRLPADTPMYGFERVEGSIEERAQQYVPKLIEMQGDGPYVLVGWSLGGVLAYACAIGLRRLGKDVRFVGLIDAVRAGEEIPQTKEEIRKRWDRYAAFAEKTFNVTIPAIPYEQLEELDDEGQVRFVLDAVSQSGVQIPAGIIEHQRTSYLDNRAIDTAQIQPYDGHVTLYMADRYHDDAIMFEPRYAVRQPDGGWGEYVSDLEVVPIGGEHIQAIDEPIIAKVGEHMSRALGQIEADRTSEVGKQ
UniProt Q8IDJ8, 1-583: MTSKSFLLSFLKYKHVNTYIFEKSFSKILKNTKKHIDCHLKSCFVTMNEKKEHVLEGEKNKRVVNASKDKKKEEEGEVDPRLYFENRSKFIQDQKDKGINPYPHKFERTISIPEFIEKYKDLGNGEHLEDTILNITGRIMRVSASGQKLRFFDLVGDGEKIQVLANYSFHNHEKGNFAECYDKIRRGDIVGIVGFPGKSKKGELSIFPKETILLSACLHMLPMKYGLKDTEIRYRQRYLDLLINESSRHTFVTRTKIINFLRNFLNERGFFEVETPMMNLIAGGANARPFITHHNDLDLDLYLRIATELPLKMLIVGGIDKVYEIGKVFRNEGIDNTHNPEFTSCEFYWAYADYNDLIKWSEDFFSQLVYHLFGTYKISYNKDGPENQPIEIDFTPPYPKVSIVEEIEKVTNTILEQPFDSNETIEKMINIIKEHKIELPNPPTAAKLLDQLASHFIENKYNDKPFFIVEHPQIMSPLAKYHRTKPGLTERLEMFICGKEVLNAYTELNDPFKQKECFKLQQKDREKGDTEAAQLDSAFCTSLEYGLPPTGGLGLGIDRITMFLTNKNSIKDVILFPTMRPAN
UniProt P9WNZ1, whole entry: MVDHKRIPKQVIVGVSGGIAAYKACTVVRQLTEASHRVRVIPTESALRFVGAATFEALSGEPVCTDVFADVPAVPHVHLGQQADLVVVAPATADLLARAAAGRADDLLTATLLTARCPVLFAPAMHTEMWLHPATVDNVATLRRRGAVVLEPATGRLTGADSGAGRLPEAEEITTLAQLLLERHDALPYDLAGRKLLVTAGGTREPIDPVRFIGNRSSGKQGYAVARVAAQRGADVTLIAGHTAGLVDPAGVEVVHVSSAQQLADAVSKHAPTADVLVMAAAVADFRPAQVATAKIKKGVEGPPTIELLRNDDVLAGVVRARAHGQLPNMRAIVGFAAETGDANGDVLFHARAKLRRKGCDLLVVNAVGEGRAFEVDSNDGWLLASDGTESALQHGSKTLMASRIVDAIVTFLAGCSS

Measurements from “University of Dundee, Small-Polar-MMV Screening Library” (2021), ChEMBL document CHEMBL3988442.

The filed quantity is “Percent Effect” (%). The record does not define 0% and 100%; most values in the screen are far below 50% and negative numbers occur (in some assays of this library far below -100). Compounds were drawn at random from those tested, without regard to their results. A dash means the value is not listed here; it may have been measured.

Pks13 thioesterase: 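Polyketide synthase Pks13, Mycobacterium tuberculosis (UniProt I6X8D2). Enzyme assay of the thioesterase domain of polyketide synthase 13; the read-out is not stated. Compounds at 30 µM. The record gives no direction; the compounds picked for IC50 retests had high values, so higher reads as stronger inhibition. Size under these conditions: about 67,000 compounds, about 300 of them at 50% or above in at least one test.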
PfKRS1: 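Enzyme assay of the cytosolic lysyl-tRNA synthetase in 384-well plates, read by luminescence. Target: Lysine-tRNA ligase, Plasmodium falciparum 3D7 (UniProt Q8IDJ8). Tested at 30 µM. Higher reads as stronger inhibition, judged from the few compounds that gave an IC50. Size under these conditions: about 69,000 compounds, about 49 of them at 50% or above in at least one test.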
CoaBC: 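Coenzyme A biosynthesis protein CoaBC, Mycobacterium tuberculosis (UniProt P9WNZ1). Enzyme assay of CoaBC with a phosphate dye (Biomol Green) read at 650 nm. Concentration: 30 µM. Direction is inferred from only a few compounds that gave an IC50; most scored high, so higher reads as stronger inhibition. Most strong results did not repeat in a second test. About 67,000 compounds were tested under these conditions; 0.06% (about 40) showed 50% or more at least once.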

SMILES: CCn1ncnc1CN(C/C=C/c1ccccc1)CCOC
Pks13 thioesterase: -38.77%
PfKRS1: 4.595%
CoaBC: 7.991%

SMILES: COc1ccc(F)c(CNC2CCCc3nc(N(C)C)ncc32)c1 (stereo not shown)
PfKRS1: 2.957%
CoaBC: 0.4938%

SMILES: O=C(CO[C@@H]1CC[C@H]2[C@H]1OCCN2CC1CCOCC1)N1CCCC1
Pks13 thioesterase: -6.858%
PfKRS1: 7.43%
CoaBC: -3.934%

SMILES: COc1ccc(COCC(O)CNC(=O)c2cnc(C)cn2)cc1 (stereo not shown)
Pks13 thioesterase: -4.901%
PfKRS1: 0.9436%
CoaBC: -2.089%

SMILES: O=C1NCCCc2[nH]c(Cc3cccc(F)c3)nc21
Pks13 thioesterase: -21.46%
PfKRS1: 6.161%
CoaBC: 5.042%

SMILES: CCc1ncc(C(=O)NCCN2CCNC2=O)cn1
Pks13 thioesterase: -0.4266%
PfKRS1: 5.148%
CoaBC: 3.883%

SMILES: Cc1nc2c(c(NC(C)C)n1)CCN(Cc1cccnc1)CC2
Pks13 thioesterase: -2.325%
PfKRS1: 3.797%
CoaBC: -0.2114%

SMILES: CC(C)n1cc(N2CC(C(=O)N3CCc4ccccc4C3)CC2=O)cn1 (stereo not shown)
Pks13 thioesterase: 9.046%
PfKRS1: -1.44%
CoaBC: 13.42%

SMILES: CNc1cc(C)nc(C2CN(Cc3cncs3)CCO2)c1 (stereo not shown)
Pks13 thioesterase: -4.882%
PfKRS1: 1.072%
CoaBC: 2.602%

SMILES: O=C(c1ccnc(-n2cnnc2)c1)N1CCCC2(CCNC2)C1 (stereo not shown)
Pks13 thioesterase: -29.6%
PfKRS1: 1.983%
CoaBC: -0.6143%

SMILES: CNC(=O)c1nnc2ccc(N3CCOCC3)cc2n1
PfKRS1: 0.3619%
CoaBC: 2.54%

SMILES: Cc1cccc(C(=O)N2CCCN(Cc3cnn(C)c3)CC2)n1
Pks13 thioesterase: 6.955%
PfKRS1: 1.243%
CoaBC: 4.922%

SMILES: CC(=O)Nc1nc2c(s1)C(C)(C)Nc1ccccc1S2
Pks13 thioesterase: 0.221%
PfKRS1: -0.6609%
CoaBC: 0.8434%

SMILES: Brc1cc(CNCc2nnc3n2CCC3)cs1
Pks13 thioesterase: -26.64%
PfKRS1: 1.553%
CoaBC: 0.4878%

SMILES: CN(CC(F)(F)F)C(=O)CNC(=O)Cc1cccc(O)c1
Pks13 thioesterase: -12.85%
PfKRS1: 3.584%
CoaBC: -1.195%

SMILES: Cc1ccc(C(C)NC(=O)N2CCN(C(=O)CC(F)(F)F)CC2)o1 (stereo not shown)
Pks13 thioesterase: -22.79%
PfKRS1: 6.502%
CoaBC: 3.548%

SMILES: CC(C)Cc1noc(CN2CCCC(CNS(N)(=O)=O)C2)n1 (stereo not shown)
Pks13 thioesterase: 8.696%
PfKRS1: -0.5575%
CoaBC: -5.198%

SMILES: CSc1nccn1-c1ccc(C(=O)NCC2CC2)cc1
Pks13 thioesterase: -2.562%
PfKRS1: 1.425%
CoaBC: 1.66%

SMILES: CC(C)c1nc2n(n1)CC(NCc1nnc(C3CC3)o1)CC2 (stereo not shown)
Pks13 thioesterase: -2.468%
PfKRS1: 0.6564%
CoaBC: -6.636%

SMILES: CN(Cc1cnccn1)c1cncc(Br)c1
Pks13 thioesterase: 12.59%
PfKRS1: 0.4992%
CoaBC: 3.388%

SMILES: CCCc1nnc(N2CCC(N3CCCCCC3)CC2)o1
Pks13 thioesterase: 8.458%
PfKRS1: 2.043%
CoaBC: 4.136%

SMILES: CN(C)C(=O)C1CCN(C(=O)c2c[nH]c3cc(Cl)ccc23)CC1
Pks13 thioesterase: -4.872%
PfKRS1: 10.27%
CoaBC: -6.615%

SMILES: CSc1ncc(C(=O)N(C)C(C)Cc2ccccn2)cn1 (stereo not shown)
Pks13 thioesterase: 0.1354%
PfKRS1: 0.6151%
CoaBC: -1.104%

SMILES: CN(C)c1ccc(-c2noc([C@@H]3CCCN3)n2)cn1
Pks13 thioesterase: -1.864%
PfKRS1: -3.045%
CoaBC: 6.095%

SMILES: Cc1noc(C(C)C)c1C(=O)NS(=O)(=O)c1cccnc1
Pks13 thioesterase: 9.531%
PfKRS1: 5.828%
CoaBC: 14.95%

SMILES: CCc1cc(C(F)(F)F)c2c(C)nn(CC(=O)O)c2n1
Pks13 thioesterase: -3.207%
PfKRS1: 4.551%
CoaBC: 10.86%

SMILES: O=c1[nH]ccc2cc(-c3cc(O)cc(CCC4CCCCN4)c3)ccc12 (stereo not shown)
Pks13 thioesterase: -26.76%
PfKRS1: 0.08949%
CoaBC: -18.31%

SMILES: CNC(=O)c1ccc(NC(=O)NC(C)c2cc(C)oc2C)c(C)c1 (stereo not shown)
Pks13 thioesterase: -24.66%
PfKRS1: 6.247%
CoaBC: -3.813%

SMILES: c1ccc2c3c([nH]c2c1)C(c1nn[nH]n1)CCC3 (stereo not shown)
Pks13 thioesterase: 1.681%
PfKRS1: 2.86%
CoaBC: -2.651%

SMILES: CCc1nc(N2CCC3(CC2)OCCCC3O)ncc1C (stereo not shown)
Pks13 thioesterase: -19.55%
PfKRS1: 11.09%
CoaBC: 3.074%

SMILES: Cc1cc(S(=O)(=O)NCC(C)(O)CN(C)C)c(F)cc1F (stereo not shown)
Pks13 thioesterase: -9.758%
PfKRS1: -1.569%
CoaBC: 3.883%

SMILES: O=C(Cn1cnc2cc3c(cc21)OCCCO3)NC1CCCC1
Pks13 thioesterase: 2.715%
PfKRS1: 0.1752%
CoaBC: -6.553%

SMILES: Cc1cc(C)cc(CN2C[C@@H]3OCCN(S(=O)(=O)N(C)C)[C@@H]3C2)c1
Pks13 thioesterase: -14.45%
PfKRS1: 0.02133%
CoaBC: 4.017%

SMILES: CC(CO)(NC(=O)NCCc1ccc(Br)s1)C1CC1 (stereo not shown)
Pks13 thioesterase: -10.09%
PfKRS1: 3.436%
CoaBC: -2.581%

SMILES: O=C(NCc1cccnc1-n1cncn1)C1CC2(CCNCC2)CN1 (stereo not shown)
Pks13 thioesterase: -5.276%
PfKRS1: 3.794%
CoaBC: -4.545%

SMILES: Cc1cnccc1CN1Cc2ccccc2O[C@]2(CC[C@H](CO)CC2)C1
Pks13 thioesterase: 11.2%
PfKRS1: 3.404%
CoaBC: 1.211%

SMILES: Cc1noc(C)c1CN1CCCC2(CCN(C(=O)N3CCOCC3)C2)C1 (stereo not shown)
Pks13 thioesterase: -13.88%
PfKRS1: 4.024%
CoaBC: -11.06%

The first 2 entries again:

SMILES	Pks13 thioesterase	PfKRS1	CoaBC
CCn1ncnc1CN(C/C=C/c1ccccc1)CCOC	-38.77%	4.595%	7.991%
COc1ccc(F)c(CNC2CCCc3nc(N(C)C)ncc32)c1 (stereo not shown)	-	2.957%	0.4938%